Assay results as given in paper doi:10.1101/2022.02.05.479222.
No constants are given. Whether binding was seen depends on the method and setting. Binding calls can cover weak binding; strength is not graded here. For part of these data: Tags and fused reporters may be left off the sequences shown.

Columns and labels:
Test in all cases: two-hybrid
[1] = target: T1, Centagon 1 (Drosophila melanogaster) (UniProt Q9VI82)
T1 sequence: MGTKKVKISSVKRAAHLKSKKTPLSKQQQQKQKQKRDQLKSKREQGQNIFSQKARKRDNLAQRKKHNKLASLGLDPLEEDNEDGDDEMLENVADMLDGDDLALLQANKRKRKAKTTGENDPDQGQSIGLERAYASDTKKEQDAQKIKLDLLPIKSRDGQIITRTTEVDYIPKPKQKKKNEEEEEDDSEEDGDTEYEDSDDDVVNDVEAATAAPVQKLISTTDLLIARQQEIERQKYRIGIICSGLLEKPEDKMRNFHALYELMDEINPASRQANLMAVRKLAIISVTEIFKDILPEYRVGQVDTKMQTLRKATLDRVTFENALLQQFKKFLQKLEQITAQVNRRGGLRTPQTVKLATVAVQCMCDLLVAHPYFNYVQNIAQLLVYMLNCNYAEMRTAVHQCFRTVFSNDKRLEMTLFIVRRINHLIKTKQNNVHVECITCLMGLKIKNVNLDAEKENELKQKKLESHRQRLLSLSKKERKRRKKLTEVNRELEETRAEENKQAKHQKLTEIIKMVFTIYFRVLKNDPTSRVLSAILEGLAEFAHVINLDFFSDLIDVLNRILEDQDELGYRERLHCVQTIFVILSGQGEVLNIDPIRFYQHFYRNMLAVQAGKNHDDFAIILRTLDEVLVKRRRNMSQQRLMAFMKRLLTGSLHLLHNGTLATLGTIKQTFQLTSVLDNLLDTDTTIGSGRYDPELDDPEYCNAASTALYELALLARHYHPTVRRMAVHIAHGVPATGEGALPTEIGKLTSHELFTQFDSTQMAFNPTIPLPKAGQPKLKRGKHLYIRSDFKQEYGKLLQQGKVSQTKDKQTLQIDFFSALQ

[2] = target: T2, Centagon 3 (Drosophila melanogaster) (UniProt Q9VLK2)
T2 sequence: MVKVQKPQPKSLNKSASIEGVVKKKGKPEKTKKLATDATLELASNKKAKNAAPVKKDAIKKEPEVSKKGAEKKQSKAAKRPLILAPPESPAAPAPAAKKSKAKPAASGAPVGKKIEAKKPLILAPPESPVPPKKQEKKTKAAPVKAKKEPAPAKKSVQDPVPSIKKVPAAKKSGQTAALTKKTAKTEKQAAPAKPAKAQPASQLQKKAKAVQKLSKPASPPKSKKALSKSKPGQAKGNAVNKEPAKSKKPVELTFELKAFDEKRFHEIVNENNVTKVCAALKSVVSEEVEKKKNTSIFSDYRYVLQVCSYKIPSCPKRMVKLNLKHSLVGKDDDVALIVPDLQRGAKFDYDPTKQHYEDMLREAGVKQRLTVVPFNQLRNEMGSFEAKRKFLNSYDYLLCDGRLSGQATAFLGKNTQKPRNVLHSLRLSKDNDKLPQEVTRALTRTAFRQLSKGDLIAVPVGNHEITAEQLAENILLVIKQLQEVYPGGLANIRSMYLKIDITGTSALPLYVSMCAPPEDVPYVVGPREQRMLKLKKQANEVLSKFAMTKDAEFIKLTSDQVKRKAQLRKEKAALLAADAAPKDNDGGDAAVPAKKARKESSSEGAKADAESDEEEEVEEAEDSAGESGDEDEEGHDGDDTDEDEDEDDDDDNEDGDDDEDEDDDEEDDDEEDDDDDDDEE

[3] = target: Centagon 4 (Drosophila melanogaster) (UniProt Q7KVD5)

Measured: binding

Centagon 2 (from UniProt A1Z909)
binds: all assays above
